Experimental data taken from the supplement of paper PMC8728848.
The other results are listed elsewhere or left out.

Experiments:
Assay in all cases: glycan array binding signal (z-score within array); higher = stronger binding
Conditions in all cases: glycan notation: IUPAC condensed, linker removed
[1] = target: Fuc(a1-2)Gal(b1-4)GlcNAc(b1-3)Gal(b1-4)GlcNAc(b1-3)Gal(b1-4)GlcNAc
How it was run: (§1)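 Glycan array data were curated from 3228 arrays in the Consortium for Functional Glycomics database and kept only where the protein sequence was available. Glycan names were converted to IUPAC-condensed notation, and columns mapping to the same glycan were averaged. The binding signal is a within-array Z-score, averaged across arrays of the same protein sequence at different concentrations or buffers and across linkers. Negative Z-scores can be read as non-binding.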

[2] = target: Fuc(a1-2)Gal(b1-4)GlcNAc(b1-3)GalNAc
How it was run: as §1

[3] = target: Fuc(a1-2)Gal(b1-4)GlcNAc(b1-3)[Fuc(a1-2)Gal(b1-4)GlcNAc(b1-6)]GalNAc
How it was run: as §1

[4] = target: Fuc(a1-2)Gal(b1-4)GlcNAc(b1-3)[Fuc(a1-3)[Gal(b1-4)]GlcNAc(b1-6)]Gal(b1-4)Glc
How it was run: as §1

[5] = target: Fuc(a1-2)Gal(b1-4)GlcNAc(b1-6)GalNAc
How it was run: as §1

[6] = target: Fuc(a1-2)Gal(b1-4)GlcNAc6S
How it was run: as §1

[7] = target: Fuc(a1-2)Gal(b1-4)[Fuc(a1-3)]GlcNAc
How it was run: as §1

[8] = target: Fuc(a1-2)Gal(b1-4)[Fuc(a1-3)]GlcNAc(b1-2)Man(a1-3)[Fuc(a1-2)Gal(b1-4)[Fuc(a1-3)]GlcNAc(b1-2)Man(a1-6)]Man(b1-4)GlcNAc(b1-4)[Fuc(a1-6)]GlcNAc
How it was run: as §1

[9] = target: Fuc(a1-2)Gal(b1-4)[Fuc(a1-3)]GlcNAc(b1-2)[Fuc(a1-2)Gal(b1-4)[Fuc(a1-3)]GlcNAc(b1-4)]Man(a1-3)[Fuc(a1-2)Gal(b1-4)[Fuc(a1-3)]GlcNAc(b1-2)Man(a1-6)]Man(b1-4)GlcNAc(b1-4)GlcNAc
How it was run: as §1

[10] = target: Fuc(a1-2)Gal(b1-4)[Fuc(a1-3)]GlcNAc(b1-3)Gal(b1-4)[Fuc(a1-3)]GlcNAc
How it was run: as §1

[11] = target: Fuc(a1-2)Gal(b1-4)[Fuc(a1-3)]GlcNAc(b1-3)Gal(b1-4)[Fuc(a1-3)]GlcNAc(b1-3)Gal(b1-4)[Fuc(a1-3)]GlcNAc
How it was run: as §1

[12] = target: Fuc(a1-2)Gal(b1-4)[Fuc(a1-3)]GlcNAc(b1-3)GalNAc
How it was run: as §1

[13] = target: Fuc(a1-2)Gal(b1-4)[Fuc(a1-3)]GlcNAc(b1-3)[Neu5Ac(a2-6)Gal(b1-4)GlcNAc(b1-6)]Gal(b1-4)Glc
How it was run: as §1

[14] = target: Fuc(a1-2)Gal3S(b1-4)GlcNAc
How it was run: as §1

[15] = target: Fuc(a1-2)Gal6S(b1-3)GlcNAc
How it was run: as §1

[16] = target: Fuc(a1-2)Gal6S(b1-3)GlcNAc6S
How it was run: as §1

Fuc(a1-2)Gal6S(b1-4)Glc = target: Fuc(a1-2)Gal6S(b1-4)Glc
How it was run: as §1

[17] = target: Fuc(a1-2)Gal6S(b1-4)Glc6S
How it was run: as §1

Fuc(a1-2)[Gal(a1-3)]Gal = target: Fuc(a1-2)[Gal(a1-3)]Gal
How it was run: as §1

[18] = target: Fuc(a1-2)[Gal(a1-3)]Gal(b1-3)GalNAc
How it was run: as §1

[19] = target: Fuc(a1-2)[Gal(a1-3)]Gal(b1-3)GalNAc(b1-3)Gal(a1-4)Gal(b1-4)Glc
How it was run: as §1

[20] = target: Fuc(a1-2)[Gal(a1-3)]Gal(b1-3)GlcNAc
How it was run: as §1

[21] = target: Fuc(a1-2)[Gal(a1-3)]Gal(b1-3)GlcNAc(b1-2)Man(a1-3)[Fuc(a1-2)[Gal(a1-3)]Gal(b1-3)GlcNAc(b1-2)Man(a1-6)]Man(b1-4)GlcNAc(b1-4)GlcNAc
How it was run: as §1

[22] = target: Fuc(a1-2)[Gal(a1-3)]Gal(b1-3)GlcNAc(b1-2)Man(a1-3)[Fuc(a1-2)[Gal(a1-3)]Gal(b1-3)GlcNAc(b1-2)Man(a1-6)]Man(b1-4)GlcNAc(b1-4)[Fuc(a1-6)]GlcNAc
How it was run: as §1

[23] = target: Fuc(a1-2)[Gal(a1-3)]Gal(b1-3)GlcNAc(b1-3)GalNAc
How it was run: as §1

[24] = target: Fuc(a1-2)[Gal(a1-3)]Gal(b1-3)GlcNAc(b1-6)GalNAc
How it was run: as §1

[25] = target: Fuc(a1-2)[Gal(a1-3)]Gal(b1-4)Glc
How it was run: as §1

[26] = target: Fuc(a1-2)[Gal(a1-3)]Gal(b1-4)GlcNAc
How it was run: as §1

[27] = target: Fuc(a1-2)[Gal(a1-3)]Gal(b1-4)GlcNAc(b1-2)Man
How it was run: as §1

[28] = target: Fuc(a1-2)[Gal(a1-3)]Gal(b1-4)GlcNAc(b1-2)Man(a1-3)[Fuc(a1-2)[Gal(a1-3)]Gal(b1-4)GlcNAc(b1-2)Man(a1-6)]Man(b1-4)GlcNAc(b1-4)GlcNAc
How it was run: as §1

[29] = target: Fuc(a1-2)[Gal(a1-3)]Gal(b1-4)GlcNAc(b1-2)Man(a1-3)[Fuc(a1-2)[Gal(a1-3)]Gal(b1-4)GlcNAc(b1-2)Man(a1-6)]Man(b1-4)GlcNAc(b1-4)[Fuc(a1-6)]GlcNAc
How it was run: as §1

[30] = target: Fuc(a1-2)[Gal(a1-3)]Gal(b1-4)GlcNAc(b1-3)GalNAc
How it was run: as §1

[31] = target: Fuc(a1-2)[Gal(a1-3)]Gal(b1-4)GlcNAc(b1-6)GalNAc
How it was run: as §1

[32] = target: Fuc(a1-2)[Gal(a1-3)]Gal(b1-4)[Fuc(a1-3)]Glc
How it was run: as §1

[33] = target: Fuc(a1-2)[Gal(a1-3)]Gal(b1-4)[Fuc(a1-3)]GlcNAc
How it was run: as §1

[34] = target: Fuc(a1-2)[Gal(a1-3)]Gal(b1-4)[Fuc(a1-3)]GlcNAc(b1-3)GalNAc
How it was run: as §1

[35] = target: Fuc(a1-2)[Gal(a1-4)]Gal(b1-4)GlcNAc
How it was run: as §1

[36] = target: Fuc(a1-2)[GalNAc(a1-3)]Gal
How it was run: as §1

[37] = target: Fuc(a1-2)[GalNAc(a1-3)]Gal(b1-3)GalNAc(a1-3)[Fuc(a1-2)]Gal(b1-4)GlcNAc
How it was run: as §1

[38] = target: Fuc(a1-2)[GalNAc(a1-3)]Gal(b1-3)GalNAc(b1-3)Gal(a1-4)Gal(b1-4)Glc
How it was run: as §1

[39] = target: Fuc(a1-2)[GalNAc(a1-3)]Gal(b1-3)GlcNAc
How it was run: as §1

[40] = target: Fuc(a1-2)[GalNAc(a1-3)]Gal(b1-3)GlcNAc(b1-2)Man(a1-3)[Fuc(a1-2)[GalNAc(a1-3)]Gal(b1-3)GlcNAc(b1-2)Man(a1-6)]Man(b1-4)GlcNAc(b1-4)GlcNAc
How it was run: as §1

[41] = target: Fuc(a1-2)[GalNAc(a1-3)]Gal(b1-3)GlcNAc(b1-2)Man(a1-3)[Fuc(a1-2)[GalNAc(a1-3)]Gal(b1-3)GlcNAc(b1-2)Man(a1-6)]Man(b1-4)GlcNAc(b1-4)[Fuc(a1-6)]GlcNAc
How it was run: as §1

[42] = target: Fuc(a1-2)[GalNAc(a1-3)]Gal(b1-3)GlcNAc(b1-3)GalNAc
How it was run: as §1

[43] = target: Fuc(a1-2)[GalNAc(a1-3)]Gal(b1-3)GlcNAc(b1-6)GalNAc
How it was run: as §1

B1: FliC (Clostridium difficile) (protein)
chain: MRVNTNVSALIANNQMGRNVNGQSKSMEKLSSGVRIKRAADDAAGLAISEKMRAQIKGLDQAGRNVQDGISVVQTAEGSLEETGNILQRMRTLSLQSANEINNTEEREKIADELTQLKDEIERISSSTEFNGKKLLDGTSSTIRLQVGASYGTNVSGTSNNNNEIKIQLVNTASIMASAGITTASIGSMKAGGTTGTDAAKTMVSSLDAALKSLNSSRAKLGAQQNRLESTQNNLNNTLENVTAAESRIRDTDVASEMVNLSKMNILVQASQSMLAQANQQPQGVLQLLG
glycan array binding signal (z-score) [1]: -0.47 | glycan array binding signal (z-score) [2]: -0.405 | glycan array binding signal (z-score) [3]: 0.144 | glycan array binding signal (z-score) [4]: -0.129 | glycan array binding signal (z-score) [5]: -1.19 | glycan array binding signal (z-score) [6]: -0.906 | glycan array binding signal (z-score) [7]: -0.034 | glycan array binding signal (z-score) [8]: -0.411 | glycan array binding signal (z-score) [9]: 0.298 | glycan array binding signal (z-score) [10]: 0.205 | glycan array binding signal (z-score) [11]: -0.413 | glycan array binding signal (z-score) [12]: 1.13 | glycan array binding signal (z-score) [13]: 0.114 | glycan array binding signal (z-score) [14]: -0.478 | glycan array binding signal (z-score) [15]: -0.684 | glycan array binding signal (z-score) [16]: 0.013 | glycan array binding signal (z-score) (Fuc(a1-2)Gal6S(b1-4)Glc): -0.281 | glycan array binding signal (z-score) [17]: -0.047 | glycan array binding signal (z-score) (Fuc(a1-2)[Gal(a1-3)]Gal): 0.187 | glycan array binding signal (z-score) [18]: -0.512 | glycan array binding signal (z-score) [19]: 0.091 | glycan array binding signal (z-score) [20]: -0.434 | glycan array binding signal (z-score) [21]: -0.018 | glycan array binding signal (z-score) [22]: 0.469 | glycan array binding signal (z-score) [23]: 0.173 | glycan array binding signal (z-score) [24]: -0.427 | glycan array binding signal (z-score) [25]: -0.069 | glycan array binding signal (z-score) [26]: 0.003 | glycan array binding signal (z-score) [27]: -0.008 | glycan array binding signal (z-score) [28]: 0.189 | glycan array binding signal (z-score) [29]: -0.063 | glycan array binding signal (z-score) [30]: -0.189 | glycan array binding signal (z-score) [31]: -0.094 | glycan array binding signal (z-score) [32]: 0.019 | glycan array binding signal (z-score) [33]: 1.1 | glycan array binding signal (z-score) [34]: 1.28 | glycan array binding signal (z-score) [35]: -0.239 | glycan array binding signal (z-score) [36]: -0.23 | glycan array binding signal (z-score) [37]: -0.598 | glycan array binding signal (z-score) [38]: -0.483 | glycan array binding signal (z-score) [39]: -0.807 | glycan array binding signal (z-score) [40]: -0.628 | glycan array binding signal (z-score) [41]: 1.26 | glycan array binding signal (z-score) [42]: -0.43 | glycan array binding signal (z-score) [43]: -0.176
